Patent publication US10232013B2, “Use of an antimicrobial peptide TP4 in treating a cancer” (Academia Sinica, priority 2016, dated 2019)
Not every detail of the peptide structures is certain; ends, links or a residue may be inferred. Where no end group is shown, it is not given here.

Columns and labels:
Assay type in all cases: cell-based, human
MB231 cells [1] = test: Mitochondrial membrane potential, MitoTracker staining, MB231; settings: TNBC cells, 3 and 6 h post-TP4 (14 μg/mL), vs control, P<0.001
MB231 cells [2] = test: Lactate dehydrogenase (LDH) assay; settings: TNBC cells, 3 h post-TP4 treatment, 2.5-20 μg mL−1, dose dependent
[3] = system: c-FOS in MB231 nuclear extracts; test: AP-1 transcription factor activation assay, c-FOS; settings: TP4-treated, OD450, P=0.0291
TNBC (MB231) cells = test: Intracellular Ca2+ measurement (Fluo-4); settings: 5-20 μg mL−1 TP4, 5 min, vs mock, P<0.001
HDF cells = test: TUNEL staining, HDF; settings: TP4 14 μg/mL, 3 or 6 h
[4] = system: Caspase3 in TNBC (MB231) cells; test: Western blot of caspase3 activation; settings: TP4-treated TNBC cells
FOSB in MB231 cells = test: FOSB induction, Western blot/immunocytochemistry, MB231; settings: MB231 (TNBC) cells, Western blot
Description: (§1) Nuclear extracts were prepared as previously described^23. Equal amounts of nuclear extract (200 μg) were used for immunoprecipitation (IP) using Dynabeads protein G (ThermoFisher Scientific), in accordance with the recommended protocol. cJUN antibody (ThermoFisher Scientific, clone C.238.2) was used for immunoprecipitation. Total cell extract preparation and Western blot were performed as previously described^23. Equal amounts of boiled lysate (20 μg of total cell extract) were separated on acrylamide gels, and then transferred to PVDF membranes. The membranes were incubated in blocking solution (0.1 M PBS, 5% non-fat milk, 0.2% Tween-20) for 1 h at room temperature (RT), and then incubated in the same solution with primary or secondary antibodies (GE Healthcare Life Science). […] Membranes were visualized with enhanced chemiluminescence (Immobilon Western Chemiluminescent HRP substrate, Merck Millipore) and detected by an imaging system (UVP, BioSpectrum™ 500). Signal intensities were determined by densitometric analysis (AlphaInnotech) using the AlphaImager program. The results were expressed as relative densitometric units (RDU) (the densitometric units of FOSB+FOSΔB divided by those of GAPDH). […]

FOSB in MB453 cells = test: FOSB induction, Western blot/immunocytochemistry, MB453; settings: Western blot
Description: as §1

## FIHHIIGGLFSAGKAIHRLIRRRRR [TP4, tilapia piscidin 4]
MB231 cells [1]
  mitochondrial membrane potential: significant loss
MB231 cells [2]
  lactate dehydrogenase (LDH) level, necrotic marker: significantly increased
[3]
  increase of c-FOS activity vs mock control: 1.4 fold
TNBC (MB231) cells
  intracellular Ca2+ levels (fluo-4): significant increase
HDF cells
  DNA fragmentation (TUNEL staining): very limited DNA fragmentation
[4]
  caspase3 activation: no obvious caspase3 activation
FOSB in MB231 cells
  FOSB induction: induced
FOSB in MB453 cells
  FOSB induction: induced
